Measurements from PubChem BioAssay AID1487 (National Center for Advancing Translational Sciences (NCATS), 2009).
The other results are listed elsewhere or left out. Further columns of the screen follow, without active or inactive calls. Compounds called inactive in the main read-out are mostly missing here. Words in brackets tell the shape of the fitted curve; partial curves, single points and poor fits give uncertain potencies.

Assay: qHTS Assay for Modulators of Lamin A Splicing
Details: HeLa LMNA splicing GFP/RFP minigene ratio, 48 h
Procedure, shortened: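 S3 HeLa cells stably expressing lamin A-EGFP splicing minigene plus DsRed2, 600 cells/well, 48 h compound exposure at 37C. Laser-scanning cytometry; analysed as GFP (500-530 nm)/RFP (575-640 nm) total intensity ratio; 0.5% DMSO vehicle.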

[1] = measured here: RFP viability control channel
[2] = measured here: GFP splicing reporter channel

O=C(Nc1nc(-c2ccccc2)cs1)NC1CCCCC1
AC50 [1]: 35.5 µM [rising, single point]

COc1ccc(-n2ccnc2SCC(=O)NCc2ccc3c(c2)OCO3)cc1
AC50 [2]: 20 µM [rising, single point]

O=C(O)CCC(=O)O
AC50 [2]: 10 µM [falling, single point]
AC50 [1]: 0.316 µM [falling, single point]

NNC(=S)NCc1ccc2c(c1)OCO2
AC50 [2]: 0.0224 µM [falling, full curve, poor fit]

CN(C)S(=O)(=O)c1cccc(NC(=O)COC(=O)c2cc(-c3cccc(Br)c3)nc3ccccc23)c1
AC50 [1]: 12.6 µM [rising, single point]

CCOc1ccc(/C=N/OCC(=O)Nc2ccc(OCc3ccccc3)cc2)cc1OC
AC50 [2]: 11.2 µM [rising, partial curve]
AC50 [1]: 14.1 µM [rising, partial curve]

N#Cc1cc2c(nc1SCc1cccnc1)CCCC2
AC50 [2]: 0.355 µM [rising, full curve, poor fit]
AC50 [1]: 4.47 µM [rising, single point]

Cc1nc2ccccc2c2oc(C(=O)NC3CC3)cc12
AC50 [1]: 35.5 µM [rising, single point]

CCOC(=O)Cc1csc(SCc2cc(=O)oc3cc(O)ccc23)n1
AC50 [1]: 12.6 µM [rising, single point]

CC(OC(=O)c1nn(C(C)C)c(=O)c2ccccc12)C(=O)Nc1ncc(Cl)cc1Cl (stereo not given)
AC50 [1]: 5.62 µM [rising, single point]

CCOc1ccc(S(=O)(=O)N2CCN(c3ccc(C)cc3C)CC2)cc1
AC50 [1]: 22.4 µM [rising, single point]

CCOC(=O)c1sc(-c2ccccn2)nc1C
AC50 [1]: 0.0447 µM [falling, full curve]

O=C1C2C3c4ccccc4C(c4ccccc43)C2C(=O)N1Cc1ccco1 (stereo not given)
AC50 [2]: 14.1 µM [rising, single point]
AC50 [1]: 22.4 µM [rising, partial curve]

COc1ccc(N2CCN(C(CNC(=O)c3ccc4c(c3)OCO4)c3ccco3)CC2)cc1 (stereo not given)
AC50 [2]: 2.82 µM [falling, partial curve]
AC50 [1]: 0.447 µM [falling, partial curve, poor fit]

COc1ccc(NC(=S)NNc2ccc([N+](=O)[O-])cc2S(=O)(=O)Nc2ccc(C)cc2C)cc1
AC50 [1]: 12.6 µM [rising, partial curve]

OCCNc1ncnc2c1sc1nc(N3CCOCC3)c3c(c12)CCC3
AC50 [2]: 10 µM [falling, partial curve]

O=C(Nc1ccc(Cl)cc1)Nc1nc(-c2sccc2Br)cs1
AC50 [2]: 11.2 µM [falling, partial curve]
AC50 [1]: 11.2 µM [falling, partial curve]

CCOc1ccc(/C=C2/SC(=S)N(n3c(C)ccc3C)C2=O)cc1
AC50 [1]: 31.6 µM [rising, single point]

CCOC(=O)c1c(-c2ccccc2)oc2ccc(O)c(CN3CCOCC3)c12
AC50 [1]: 20 µM [rising, single point]

CC(C)(C)c1ccc(-c2n[nH]c(=S)n2C2CCCC2)cc1
AC50 [1]: 3.16 µM [rising, single point]

CC(=O)Nc1c(C)nn(-c2ccccc2)c1N1CCC(C(=O)Nc2cc(F)ccc2F)CC1
AC50 [2]: 0.891 µM [rising, full curve, poor fit]

CC(=O)Nc1ccc(S(=O)(=O)N2CCN(Cc3cccc([N+](=O)[O-])c3)CC2)cc1
AC50 [1]: 5.62 µM [rising, single point]

COc1ccc(S(=O)(=O)c2c(Nc3ccc(C)cc3C)sc(C(=O)c3ccc(F)cc3)c2N)cc1
AC50 [2]: 2.82 µM [rising, full curve, poor fit]
AC50 [1]: 2.51 µM [rising, full curve]

O=C1CC(c2c[nH]c3ccccc23)C(=O)N1 (stereo not given)
AC50 [2]: 0.00447 µM [rising, full curve, poor fit]
AC50 [1]: 0.00355 µM [rising, full curve, poor fit]

Cc1ccc(C)c2c1[nH]c1ccc([N+](=O)[O-])cc12
AC50 [1]: 35.5 µM [rising, single point]

COc1ccc(CCNC(=S)Nc2cccc(C)c2)cc1
AC50 [1]: 22.4 µM [rising, single point]

O=C1C(=C(c2ccccc2)c2ccccc2)Nc2ccccc21
AC50 [1]: 31.6 µM [rising, single point]

O=C(CSc1nc2c([nH]c3ccccc32)c(=O)n1-c1cccc(Cl)c1)c1ccccc1
AC50 [2]: 8.91 µM [falling, partial curve, poor fit]
AC50 [1]: 7.94 µM [falling, partial curve, poor fit]

CSCCC(N)C(=O)O (stereo not given)
AC50 [2]: 10 µM [rising, partial curve, poor fit]

O=c1[nH][nH]c(=O)c2c(NS(=O)(=O)c3ccccc3)cccc12
AC50 [1]: 4.47 µM [rising, single point]

CCN(CC)c1ccc(/C=C(\C#N)C(=O)c2ccc(Br)cc2)cc1
AC50 [1]: 15.8 µM [rising, single point]

Cc1cccc(C(=O)NC2CC3CCCC(C2)N3S(=O)(=O)c2ccccc2)c1 (stereo not given)
AC50 [1]: 20 µM [rising, single point]

Cc1ccc([N+](=O)[O-])cc1N=Cc1ccc(Br)s1
AC50 [2]: 0.158 µM [rising, full curve, poor fit]
AC50 [1]: 0.282 µM [rising, partial curve, poor fit]

C1CCC(C(C[C@@H]2CCCCN2)C2CCCCC2)CC1
AC50 [2]: 14.1 µM [falling, partial curve, poor fit]
AC50 [1]: 11.2 µM [falling, single point]

Oc1cc2ccccc2cc1-c1n[nH]c(=S)n1Cc1ccco1
AC50 [2]: 6.31 µM [rising, partial curve, poor fit]

Cc1cccc2sc(N(Cc3cccnc3)C(=O)CCOc3ccccc3)nc12
AC50 [2]: 17.8 µM [falling, partial curve, poor fit]
AC50 [1]: 28.2 µM [falling, single point]

COc1ccc(S(=O)(=O)N(CC(=O)N/N=C/c2cccs2)c2cc(C)cc(C)c2)cc1OC
AC50 [1]: 11.2 µM [rising, partial curve]

CCOC(=O)c1ccc(N2CCN(c3ccccc3OC)CC2)c(NC(=O)Nc2ccc(CC)cc2)c1
AC50 [2]: 0.1 µM [rising, full curve, poor fit]

CCOC(=O)c1c(C)noc1-c1ccco1
AC50 [2]: 35.5 µM [rising, single point]

O=C1CSC(c2ccc(F)cc2)N1c1nc2ccccc2s1 (stereo not given)
AC50 [2]: 11.2 µM [rising, single point]
AC50 [1]: 12.6 µM [rising, single point]

CC(C)Cn1c(N)c(C(=O)CSc2ccccc2)c(=O)n(C)c1=O
AC50 [2]: 2 µM [rising, partial curve, poor fit]
AC50 [1]: 10 µM [rising, partial curve]

Cc1c2c(n3c(nc4ccccc43)c1C#N)N(CCN(C)C)CC2
AC50 [2]: 10 µM [falling, partial curve, poor fit]

CC12CCC(C(=O)N3CCc4ccccc43)(CC1=O)C2(C)C (stereo not given)
AC50 [2]: 2.51 µM [falling, partial curve, poor fit]

CCOC(=O)c1c(NC(=O)CSc2n[nH]c(N)n2)sc(CC)c1C
AC50 [2]: 17.8 µM [rising, partial curve, poor fit]
AC50 [1]: 14.1 µM [rising, single point]

C/C(=N\NC(=O)c1c(Cl)cnn1C)c1cccc(NC(=O)COc2ccccc2)c1
AC50 [1]: 11.2 µM [rising, partial curve, poor fit]

O=C(CN1CCCCC1)Nc1ccc(N2CCCCCC2)cc1
AC50 [2]: 1.12 µM [rising, partial curve]

CCc1cnc2c(c1SCC(=O)NCc1ccc(C)cc1)c(=O)n(C)c(=O)n2C
AC50 [2]: 0.0158 µM [falling, full curve, poor fit]

CCSC1=NCCN1C(=O)c1c(-c2ccccc2Cl)noc1C
AC50 [2]: 0.0282 µM [falling, full curve, poor fit]

CCOc1c(Br)cc(/C=N\NC(=O)c2ccccc2)cc1OC
AC50 [2]: 1.12 µM [rising, full curve, poor fit]
AC50 [1]: 17.8 µM [rising, partial curve, poor fit]

CCCN(CC(=O)Nc1cc(Cl)ccc1Cl)C(=O)/C=C/c1ccco1
AC50 [1]: 14.1 µM [rising, single point]

Cc1cc(S(=O)(=O)Nc2ccc(C(=O)N3CCN(C(=O)c4ccco4)CC3)cc2)ccc1F
AC50 [1]: 11.2 µM [rising, single point]

COC(=O)c1cc(NC(=O)CN(c2ccccc2OC)S(=O)(=O)c2ccccc2)ccc1Cl
AC50 [2]: 35.5 µM [rising, single point]
AC50 [1]: 31.6 µM [rising, single point]

Clc1ccc(CN2CCc3nc(N4CCN(c5ccccn5)CC4)ncc3C2)cc1
AC50 [2]: 0.0251 µM [falling, full curve, poor fit]
AC50 [1]: 0.0316 µM [falling, full curve, poor fit]

CCc1ccccc1N1C(=O)c2ccccc2S1(=O)=O
AC50 [2]: 17.8 µM [rising, single point]
AC50 [1]: 35.5 µM [rising, single point]

Cc1c(C(=O)Nc2nc3ccccc3[nH]2)oc2ccc(Br)cc12
AC50 [1]: 22.4 µM [rising, partial curve, poor fit]

CCOC(=O)c1cc(-c2ccccc2)n(CCCC(=O)Nc2cccc(C)c2)c1C
AC50 [1]: 35.5 µM [rising, single point]
